Each number is a percent effect as filed.
How 0% and 100% were set is not recorded. Most values in the screen are low, and negative values occur.
Compounds were drawn at random from those tested, without regard to their results.

A: 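Growth of Mycobacterium tuberculosis over 3 days (7H9 medium with glucose and tyloxapol); the read-out is not stated. Compounds at 500 µM. Direction is inferred from retests: higher values go with more growth inhibition. Size under these conditions: about 18,000 compounds, about 1,400 of them at 50% or above in at least one test.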
B: 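Whole-cell growth test on Mycobacterium tuberculosis, read after 4 days in a medium based on cholesterol and the lipid DPPC; the read-out is not stated. Compounds at 500 µM. Higher reads as more growth inhibition (inferred: compounds with an IC50 in retests scored well above the rest). Of about 18,000 compounds tested this way, about 900 (5%) reached 50% or more in at least one test.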

With CN(C)c1nc(-c2ccc3c(c2)CCC(=O)N3)cs1 the screen gave A: 56.25%; B: 56.62%. With CC(C)N1CCN(CCCSc2nnnn2C)CC1 the screen gave A: -2.191%; B: -1.123%. Result for O=C(NC1CCCc2occc21)c1cccnc1 (stereo not given) was A: 58%; B: 45.13%. Cc1nccn1-c1ccc(CN)cc1F read A: 17.65%; B: 24.1%. CC(=O)c1ccnc(N2CCC(NS(C)(=O)=O)CC2)c1 read A: -17.52%; B: -9.847%.

CO[C@@H]1CCOC[C@H]1NC(=O)Cc1cnccn1 read A: -2.881%; B: -12.82%. Cc1cn(CC(=O)N2CCOCC(O)C2)c(=O)[nH]c1=O (stereo not given) gave A: -4.256%; B: 0.9377%. Result for O=C(NCCc1c[nH]cn1)c1cn2cccnc2n1 was A: -11.91%; B: -9.6%. With Cc1ccoc1C(=O)Nc1cccc(CO)n1 the screen gave A: -12.83%; B: -22.18%. O=C(Cc1ccccc1F)Nc1nnc2n1CCCC2 gave A: 5.812%; B: -8.934%.

Cc1cc(NC(=O)NC(C)CN2CCOCC2)no1 (stereo not given) gave A: 14.64%; B: 17.52%. Result for COCc1ccccc1CN was A: 17.84%; B: 7.086%. With c1cn(-c2cc(N3CCSCC3)ncn2)cn1 the screen gave A: 35.95%; B: 5.05%. Cc1ccc(C(=O)NCc2nnnn2C2CC2)c(Br)c1 read A: -6.583%; B: -10.42%. With Cn1cc(CC(=O)Nc2ccc(I)cn2)cn1 the screen gave A: 55.53%; B: 54.6%.

CCOC(C)C(=O)Nc1ccc2c(c1)NC(=O)CS2 (stereo not given) gave A: 35.4%; B: 18.94%. CCCN1CCCN(C(=O)c2ccc(C)nc2)CC1 gave A: 4.02%; B: 10.01%. CN1N=C(C(=O)N2CCCCCC2)CCC1=O read A: 14.68%; B: 8.635%. Result for COc1ccnc(C(=O)N2CCCC(CCCO)C2)c1 (stereo not given) was A: 34.37%; B: 0.3974%. For N#Cc1ccc(CN)c(F)c1 the result was A: -1.507%; B: 3.376%.

COCCN(CCOC)C1CCNCC1 gave A: 8.538%; B: -1.407%. OCC1(Cc2ccc(F)cc2)CCNC1 (stereo not given) gave A: 0.1188%; B: -8.381%. Cn1ncc(Sc2nc3ncccn3n2)c(Br)c1=O read A: 10.65%; B: -1.236%. CCNCCNC(=O)CCc1ccc(F)cc1 read A: 2.245%; B: 5.595%. COC(=O)CNC(C)c1c(F)cccc1OC (stereo not given) gave A: -16.98%; B: -19.62%.

Cc1noc(OCCOCC2CCCO2)n1 (stereo not given) gave A: 11.33%; B: 18.39%. Cc1ccc(C(=O)NCCCN2CCN(C)CC2)cc1 gave A: 10.65%; B: 7.83%. CC(C)CC(=O)NCC(O)c1ccccc1F (stereo not given) read A: 2.597%; B: -1.357%. For O=C(Cn1c(=O)[nH]c(=O)c2ccccc21)N1CCCC1 the result was A: 5.236%; B: 6.068%. O=C1CN(C(=O)c2cccc(Cl)c2Cl)CCN1CCO read A: -6.016%; B: -10.28%.

O=C(NCCN1CCNCC1)c1ccccc1F read A: 17.48%; B: -3.862%. For CS(=O)(=O)NCCCN1CCc2ccccc21 the result was A: 35.65%; B: 31.29%. CC1CNC2=CC=CNC2=N1 (stereo not given) read A: 0.6389%; B: -3.043%. For CCC(=O)NCC(C)(CC)NC(=O)CC (stereo not given) the result was A: 1.327%; B: 2.351%. NCCCOC1CCN(C(=O)c2ccc(Br)o2)CC1 gave A: 52.04%; B: 31.5%.

For CC(=Cc1ccccc1)CN1CCN(S(N)(=O)=O)CC1 the result was A: 37.47%; B: 38.34%.

The first 4 entries again:

| compound | A | B |
|---|---|---|
| `CN(C)c1nc(-c2ccc3c(c2)CCC(=O)N3)cs1` | 56.25% | 56.62% |
| `CC(C)N1CCN(CCCSc2nnnn2C)CC1` | -2.191% | -1.123% |
| `O=C(NC1CCCc2occc21)c1cccnc1` (stereo not given) | 58% | 45.13% |
| `Cc1nccn1-c1ccc(CN)cc1F` | 17.65% | 24.1% |

From ChEMBL document CHEMBL3988442, “University of Dundee, Small-Polar-MMV Screening Library” (2021).